{"source": "PubChem BioAssay AID504786 (Drosophila RNAi Screening Center, 2011)", "assay": "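Positive regulators of HIF-driven reporter output in Drosophila cells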 (primary screen)", "cell system": "Drosophila S2 cells with a stable HIF luciferase reporter", "knock-down reagent": "long dsRNA against Drosophila genes, about 0.2 µg dsRNA per well of a 384-well plate", "duration": "three days of knock-down, then 20 h of DFO before reading", "conditions": "desferrioxamine (DFO) at 100 µM, an iron chelator that mimics hypoxia, for 20 h", "measurement": "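Firefly luciferase driven by the mouse ldh-a hypoxia-response element, measured after 20 h of 100 µM DFO; z-scores per plate, higher means more signal lost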", "reading the numbers": "z-score: higher = stronger loss of HIF reporter signal", "note": "The screen tested about 21,000 reagents; below is a random part of those with a known target gene and a result. 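Primary screen; positive scores mean lost reporter signal, so the sign may be inverted from the usual convention.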"}
{"gene knocked down": "CG17974", "DRSC id": "DRSC04299", "z-score, replicate 1": -0.3, "z-score, replicate 2": -0.5}
{"gene knocked down": "RpL6", "DRSC id": "DRSC14323", "z-score, replicate 1": 2.2, "z-score, replicate 2": 4.2}
{"gene knocked down": "halo", "DRSC id": "DRSC00705", "z-score, replicate 1": -0.3, "z-score, replicate 2": -0.5}
{"gene knocked down": "SPR", "DRSC id": "DRSC17390", "z-score, replicate 1": -0.6, "z-score, replicate 2": -0.1}
{"gene knocked down": "SPR", "DRSC id": "DRSC17886", "z-score, replicate 1": 0, "z-score, replicate 2": 0.6}
{"gene knocked down": "SPR", "DRSC id": "DRSC18114", "z-score, replicate 1": -0.3, "z-score, replicate 2": -0.1}
{"gene knocked down": "Prosalpha4T2", "DRSC id": "DRSC04643", "z-score, replicate 1": -0.1, "z-score, replicate 2": -0.4}
{"gene knocked down": "CG2540", "DRSC id": "DRSC19856", "z-score, replicate 1": -0.4, "z-score, replicate 2": -0.4}
{"gene knocked down": "stwl", "DRSC id": "DRSC11400", "z-score, replicate 1": 1.3, "z-score, replicate 2": 1.3}
{"gene knocked down": "Ada", "DRSC id": "DRSC14463", "z-score, replicate 1": 0, "z-score, replicate 2": 0.3}
{"gene knocked down": "shot", "DRSC id": "DRSC05459", "z-score, replicate 1": -0.3, "z-score, replicate 2": -0.2}
{"gene knocked down": "shot", "DRSC id": "DRSC05460", "z-score, replicate 1": -0.1, "z-score, replicate 2": -0.2}
{"gene knocked down": "shot", "DRSC id": "DRSC07682", "z-score, replicate 1": -0.3, "z-score, replicate 2": -0.4}
{"gene knocked down": "Cap-D3", "DRSC id": "DRSC02349", "z-score, replicate 1": -0.2, "z-score, replicate 2": -1.1}

Sorted by “z-score, replicate 2” (ascending): some entries from above
{"gene knocked down": "Prosalpha4T2", "DRSC id": "DRSC04643", "z-score, replicate 1": -0.1, "z-score, replicate 2": -0.4}
{"gene knocked down": "CG2540", "DRSC id": "DRSC19856", "z-score, replicate 1": -0.4, "z-score, replicate 2": -0.4}

The results go on.
{"gene knocked down": "Wnt10", "DRSC id": "DRSC00990", "z-score, replicate 1": -0.2, "z-score, replicate 2": -0.1}
{"gene knocked down": "Wnt10", "DRSC id": "DRSC02797", "z-score, replicate 1": -0.3, "z-score, replicate 2": -0.4}
{"gene knocked down": "mAcon2", "DRSC id": "DRSC15629", "z-score, replicate 1": -0.3, "z-score, replicate 2": 0.3}
{"gene knocked down": "BBS4", "DRSC id": "DRSC06352", "z-score, replicate 1": 0, "z-score, replicate 2": -0.1}
{"gene knocked down": "CG11843", "DRSC id": "DRSC14401", "z-score, replicate 1": -0.4, "z-score, replicate 2": -0.5}
{"gene knocked down": "CG18249", "DRSC id": "DRSC15318", "z-score, replicate 1": -0.4, "z-score, replicate 2": -0.3}
{"gene knocked down": "CG5068", "DRSC id": "DRSC10476", "z-score, replicate 1": -0.4, "z-score, replicate 2": -0.6}
{"gene knocked down": "side-VI", "DRSC id": "DRSC12828", "z-score, replicate 1": 0.2, "z-score, replicate 2": 0.5}
{"gene knocked down": "side-VI", "DRSC id": "DRSC12830", "z-score, replicate 1": 0.3, "z-score, replicate 2": 0.6}
{"gene knocked down": "side-VI", "DRSC id": "DRSC14920", "z-score, replicate 1": -0.2, "z-score, replicate 2": -0.5}
{"gene knocked down": "side-VI", "DRSC id": "DRSC15624", "z-score, replicate 1": -0.1, "z-score, replicate 2": -0.8}
{"gene knocked down": "Odc2", "DRSC id": "DRSC07483", "z-score, replicate 1": 0, "z-score, replicate 2": -0.4}
{"gene knocked down": "ND-49", "DRSC id": "DRSC17151", "z-score, replicate 1": -0.1, "z-score, replicate 2": -0.6}
